The list shows a part of the results. These are further read-outs of the screen, such as a control signal, another cell line or another target. No call is given for them. Most of these compounds were active or inconclusive in the main read-out, so they are no random draw. Potencies come from curve fits of mixed quality, noted in brackets.
Assay: qHTS Assay for Lipid Storage Modulators in Drosophila S3 Cells;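 on cell number change: cells counted by Cell Tracker Red CMTPX staining in the red channel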
Conditions: BODIPY lipid droplet fluorescence, 18-24 h; for cell number change: measured here: cell count max response, cells fed with added oleic acid
Procedure, shortened: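 Drosophila S3 cells got compounds at several concentrations plus oleic acid (400 uM solution). Laser-scanning cytometry with 488 nm excitation read lipid droplets at 500-530 nm and cells at 575-640 nm. Percent activity was relative to 20 uM Triacsin C.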

[1] = measured here: cell number channel AC50, cells fed with added oleic acid
[2] = measured here: lipid fluorescence (Fed channel) AC50, cells fed with added oleic acid

Row | SMILES | cell number change | AC50 [1] | AC50 [2]
1 | Cc1cc(OCc2cc(C(=O)O)oc2C)c2c3c(c(=O)oc2c1)CCCC3 | 3.3% | 0.13 µM [falling, full curve, poor fit] | –
2 | COc1cc(C2SCC(=O)Nc3c2c(=O)[nH]n3C2CCCCCC2)cc(OC)c1OC (configuration not stated) | -1.81% | – | –
3 | COc1ccccc1NC(=O)Cn1c(=O)oc2cc(S(=O)(=O)N3CCCC3)ccc21 | – | 4.11 µM [rising, partial curve] | –
4 | COc1ccccc1N1CCN(C2CCCN(C(=O)COc3ccccc3Cl)C2)CC1 (configuration not stated) | -16.9% | – | –
5 | COC(=O)C1=C(c2c(C)noc2C)C[C@@H]2CC[C@H]1N2C(=O)NCc1ccc(C(F)(F)F)cc1 | -4.85% | – | –
6 | CC(C)CC(NC(=O)CCCNC(=O)CCC(=O)OC1O[C@H]2OC3(C)CC[C@H]4[C@H](C)CCC(C1C)C24OO3)C(=O)O (some centres not stated) | 30.5% | – | 29.1 µM [rising, single point]
7 | CN(C)C(=O)NC(O)C(Cl)(Cl)Cl (configuration not stated) | -83.7% | 6.51 µM [falling, full curve] | 29.1 µM [falling, single point]
8 | COc1ccccc1-n1c(-c2ccc(C)cc2)nc2ccccc2c1=O | -18.1% | – | –
9 | COc1cc(/C=C/[N+](=O)[O-])ccc1OC(=O)c1cccnc1 | 14.4% | 0.103 µM [rising, full curve, poor fit] | 0.731 µM [falling, full curve, poor fit]
10 | S=C=Nc1ccccn1 | 58.7% | 18.4 µM [rising, partial curve] | –
11 | CC(=O)c1ccc(OCC(=O)N2CCCC(N(C)Cc3ccccc3)C2)cc1 (configuration not stated) | – | 0.651 µM [rising, single point] | –
12 | COC(=O)C1=C(c2ccccc2OCc2ccccc2)C[C@@H]2CC[C@H]1N2C(=O)NCCc1ccc(F)cc1 | 11.2% | – | 0.82 µM [falling, single point]
13 | COC(=O)C1=C(c2ccc(F)cc2OCc2ccccc2)C[C@@H]2CC[C@H]1N2C(=O)NCc1cccc(F)c1 | -3.43% | – | 13 µM [falling, partial curve, poor fit]
14 | N=c1c[n+](C2CCCCC2)[n-]o1 | 22.5% | 3.66 µM [rising, single point] | 0.0259 µM [rising, full curve, poor fit]
15 | O=C1NC(=O)C(CCc2ccncc2)(Cc2ccc([N+](=O)[O-])cc2)C(=O)N1 | 22.8% | – | –
16 | Cc1nc2ccccc2c(=O)n1-c1ccc(Cl)cc1[N+](=O)[O-] | -1.51% | – | –
17 | Cc1nn(Cc2ccccc2)c(Cl)c1C(=O)Nc1ccc(OC(F)(F)F)cc1 | -20.3% | – | 16.4 µM [falling, single point]
18 | COC(=O)C1=C(c2ccc(-c3ccccc3)c(F)c2)C[C@@H]2CC[C@H]1N2C(=O)NCCCOC(C)C | -6.69% | – | 3.66 µM [rising, partial curve]
19 | O=C(O)C12C3CCCC1C32c1ccccc1 (configuration not stated) | 0.151% | – | 0.82 µM [rising, partial curve, poor fit]

Entries of single compounds from above:
`O=C(O)C12C3CCCC1C32c1ccccc1` (configuration not stated) in the list: cell number change: 0.151%; AC50 [2]: 0.82 µM [rising, partial curve, poor fit]
`COc1cc(/C=C/[N+](=O)[O-])ccc1OC(=O)c1cccnc1` in the list: cell number change: 14.4%; AC50 [1]: 0.103 µM [rising, full curve, poor fit]; AC50 [2]: 0.731 µM [falling, full curve, poor fit]
`CC(C)CC(NC(=O)CCCNC(=O)CCC(=O)OC1O[C@H]2OC3(C)CC[C@H]4[C@H](C)CCC(C1C)C24OO3)C(=O)O` (some centres not stated) in the list: cell number change: 30.5%; AC50 [2]: 29.1 µM [rising, single point]

(continued)

Row | SMILES | cell number change | AC50 [1] | AC50 [2]
20 | CCN(CC)c1ccc(CN(C)CCc2ccc(OC)c(OC)c2)cc1 | 20.6% | – | 23.1 µM [rising, partial curve, poor fit]
21 | O=S(=O)(c1ccc(Cl)cc1)c1ccc(Cl)cc1 | 15.4% | 0.461 µM [falling, single point] | 0.58 µM [falling, single point]
22 | CN1C(=O)C(=Cc2c(OCc3cnc(Cl)s3)ccc3ccccc23)C(=O)N(C)C1=O | -8.51% | – | 0.116 µM [rising, single point]
23 | O=c1[nH]c(=O)n(C2CCCCC2)c(O)c1/C=C/C=Nc1ccccc1 | -25.1% | – | 20.6 µM [falling, partial curve, poor fit]
24 | CCCCCCCCCCCCn1ccc(=N)cc1 | -60% | 1.16 µM [falling, full curve] | –
25 | O=C1NC(=O)C(CCc2ccccn2)(Cc2cccc(Cl)c2Cl)C(=O)N1c1ccc(Br)cc1 (configuration not stated) | 4.82% | – | –
26 | COc1ccc(-n2nc(C(=O)NCC(=O)N3CCC4(CC3)OCCO4)c3ccccc3c2=O)cc1Cl | -19.8% | – | 29.1 µM [falling, partial curve]
27 | COC(=O)C1=C(c2ccc(OCc3ccccc3)cc2)C[C@@H]2CC[C@H]1N2C(=O)NC1CCN(Cc2ccccc2)CC1 | -58% | 8.2 µM [falling, partial curve] | 3.66 µM [falling, full curve]
28 | c1ccc2c3c(ccc2c1)OCC1CONC31 (configuration not stated) | -14.2% | 0.13 µM [falling, full curve, poor fit] | 0.092 µM [falling, full curve, poor fit]
29 | Cc1cc(CN(C)C)c(OC(=O)N(C)C)cc1C | -7.64% | – | 18.4 µM [falling, single point]
30 | COc1ccccc1N1CCN(Cc2ccc(Br)cc2)CC1 | -25.2% | – | 29.1 µM [falling, single point]
31 | Cc1cc(N2C(=O)C3CCCN3C2c2ccccc2)no1 (configuration not stated) | – | – | 0.058 µM [rising, full curve]
32 | CN1CCN(C(=O)COc2ccc(Oc3ccccc3)cc2)CC1 | – | – | 0.58 µM [rising, single point]
33 | [N-]=[N+]=NCCN1CCC(O)CCC1=O (configuration not stated) | 38.8% | – | 0.58 µM [rising, single point]
34 | CC12CCC(=O)C=C1CCC1C2CCC2(C)C(O)CCC12 (configuration not stated) | -0.538% | – | 29.1 µM [falling, single point]
35 | Cn1c(C(=O)N2CCC3(CC2)OCCO3)cc2c(=O)n(C)c3ccccc3c21 | 89.3% | 8.2 µM [rising, partial curve] | 8.2 µM [rising, partial curve]
36 | O=C1/C(=C\c2ccncc2)N2CCC1CC2 | 12.7% | 4.11 µM [rising, single point] | 2.59 µM [rising, single point]
37 | CCCCn1c(=O)c(C(=O)Nc2ccccc2C)c(O)c2ccccc21 | 0.338% | – | 1.46 µM [rising, full curve]
38 | CC(=O)OC(CC(=O)O)C[N+](C)(C)C (configuration not stated) | – | 20.6 µM [rising, single point] | –
